Data reported in PubChem BioAssay AID2685 (National Center for Advancing Translational Sciences (NCATS), 2010).
About 2,100 (0.66%) of roughly 320,000 compounds were called active. Inconclusive means that the source gave no clear call. Such entries were picked first, then a sample of the others. The call rests on the fitted dose curve; in most records, active means well fitted inhibition curve with a large enough effect in the signal ratio, with a control signal flat (not every such curve was filed as active); inconclusive means small, poorly fitted or top-dose-only effect, or effect the other way, or a change in a side signal; inactive means flat fitted curve, though single readings scatter; the % refers to the signal ratio. Potencies beside an inconclusive call are fits to weak or partial responses and may not hold up.

Experiment: qHTS Assay for Lipid Storage Modulators in Drosophila S3 Cells
Details: BODIPY lipid droplet fluorescence, 18-24 h, cells fed with added oleic acid; lipid storage change, negative = inhibition: at 46.1 µM (top of the series) unless noted
How it was run: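 Drosophila S3 cells loaded with oleic acid (400 uM, as added) and compounds at several concentrations; lipid droplets imaged by 488-nm laser-scanning cytometry, 500–530 nm intensity and object ratio to cell channel. Percent activity normalized to 20 uM Triacsin C.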
On the % scale 0 is the no-effect control and ±100 the full control effect; potency means the concentration at half of the fitted maximal effect.

| Compound | lipid storage change, negative = inhibition | Potency |
| --- | --- | --- |
| O=C(CS(=O)(=O)c1ccccc1)c1ccc2c(c1)OCCO2 | inconclusive: -0.272% | – |
| CCC(=O)O/N=C(\N)c1ccc(Oc2cc(C)c(Cl)c(C)c2)c([N+](=O)[O-])c1 | inconclusive: 15.5% | – |
| S=c1nc[nH]c2c1[nH]c1ccc(Cl)cc12 | inconclusive: 16.4% | – |
| O=C(NCCc1c[nH]c2ccccc12)C1CCN(S(=O)(=O)c2ccccc2)CC1 | inconclusive: 2.67% | – |
| Cc1cc(Cn2nc(-c3ccccc3)cc2C(=O)NCc2cccs2)on1 | – | inconclusive: 20.6 µM [falling, single point] |
| COCCn1c(SCC(=O)NC2CCCC(C)C2C)nc2ccccc2c1=O (configuration not stated) | inconclusive | – |
| Cn1c(=O)n(C)c2cc([N+](=O)[O-])c(N3CCN(C(=O)c4ccc(F)cc4)CC3)cc21 | – | inconclusive: 6.51 µM [cytotoxic, single point] |
| COc1ccc(Cl)cc1NC(=O)CCNC(=O)Cn1ccc2ccccc2c1=O | inconclusive: 63.5% | – |
| Cc1nc(SCC(=O)c2ccc(F)cc2)n[nH]1 | inconclusive: 25.9% | – |
| O=C(CCCCCCCCN1C(=O)c2ccccc2C1=O)N1CCOCC1 | inconclusive: 12% | – |
| Cc1ccc(NC(=O)CSc2n[nH]c(-c3ccco3)n2)c(C)c1 | inconclusive: -19.3% | – |
| O=C(/C=C/c1ccc(-c2ccccc2[N+](=O)[O-])o1)c1ccc(F)cc1 | inconclusive: -4.16% | – |
| CCCOC(=O)C1=C(C)NC2=C(C(=O)CCC2)C1c1cccs1 (configuration not stated) | inconclusive: -2.72% | – |
| CCCCN(C)S(=O)(=O)c1c(C)[nH]c(=O)[nH]c1=O | – | inconclusive: 0.116 µM [falling, partial curve, poor fit] |
| CCOc1ccc(NC(=S)Nc2cccc3ccccc23)cc1 | inconclusive: 4.07% | – |
| C=CC[N+]1(CC#Cc2ccccc2)CCCC1 | inconclusive: 0.254% | – |
| CCOC(=O)N1CCC(Nc2nc3ccccc3n3nnnc23)CC1 | inconclusive: 14% | – |
| COC(=O)c1ccc(C2/C(=C(/O)c3ccc4c(c3)CC(C)O4)C(=O)C(=O)N2CCN2CCOCC2)cc1 (configuration not stated) | inconclusive: 3.65% | – |
| CCC(C)COC(c1ccccc1)(c1ccccc1)C(Oc1nc(C)cc(C)n1)C(=O)O (configuration not stated) | inactive | – |
| COC(=O)COc1ccc(C2NC(=O)NC(C)=C2C(=O)NCc2ccccc2)cc1OC (configuration not stated) | inconclusive: 26.7% | – |
| CC(=O)c1cccc(NC(=O)c2ccc(-c3ccccc3[N+](=O)[O-])o2)c1 | inconclusive: -19.7% | – |
| Cc1c(OCc2ccccc2)cccc1OCc1ccccc1 | inconclusive: -8.35% | – |
| O=C(NNC(=O)c1cc(-c2ccc(Cl)cc2)nc2ccccc12)c1csc(N2CCOCC2)n1 | inconclusive: -1.22% | – |
| COc1ccccc1N1CCN(C(=O)C(C)NC(=O)c2cccc([N+](=O)[O-])c2)CC1 (configuration not stated) | – | inconclusive: 20.6 µM [falling, single point] |
| CCc1ccc2c(CC(=O)Nc3cccc(S(=O)(=O)N4CCOCC4)c3)coc2c1 | inconclusive: -2.47% | – |
| CC(c1ccccc1)N(C)CC(=O)NC(=O)NCCC1=CCCCC1 (configuration not stated) | inconclusive: -0.106% | – |

2 consecutive entries from above:

| Compound | lipid storage change, negative = inhibition | Potency |
| --- | --- | --- |
| Cc1nc(SCC(=O)c2ccc(F)cc2)n[nH]1 | inconclusive: 25.9% | – |
| O=C(CCCCCCCCN1C(=O)c2ccccc2C1=O)N1CCOCC1 | inconclusive: 12% | – |

Continued:

| Compound | lipid storage change, negative = inhibition | Potency |
| --- | --- | --- |
| O=C(CSC1=NS(=O)(=O)c2cc(F)ccc2N1)NCc1ccc(F)cc1 | – | inconclusive: 0.92 µM [falling, full curve, poor fit] |
| Cc1nc(SCC(=O)NC2CCS(=O)(=O)C2)c2c3c(sc2n1)CCCC3 (configuration not stated) | – | inconclusive: 5.17 µM [activator, partial curve, poor fit] |
| Cc1ccn2cc(CCNC(=O)C3CC=CCC3C(=O)O)nc2c1 (configuration not stated) | inconclusive: -15.9% | – |
| CCn1c(SCC(=O)O)nnc1-c1ccccc1 | – | inconclusive: 5.17 µM [activator, full curve] |
| C/C(=N\Nc1cccc(Cl)c1)c1ccc(-n2ccnc2)cc1 | – | inconclusive: 0.58 µM [rising, full curve] |
| CCC(C)(c1ccc(C=O)s1)c1ccc(C=O)s1 | inconclusive: -9.41% | – |
| C/C(=N\NC(=O)c1cccc(N/N=C(\C)c2ccncc2)c1)c1ccncc1 | inconclusive: 14.4% | – |
| COCCNCc1ccccc1 | – | active: 18.4 µM |
| CCC1(CC)Cc2ccccc2C(=C(C#N)C#N)N1 | – | inconclusive: 8.2 µM [activator, partial curve] |
| O=S(=O)(Nc1ccc(Cl)cc1)c1ccc(N2CCOCC2)c(NC(=S)NC2CC2)c1 | inconclusive: -14.2% | – |
| Cc1cc(C)n2nc(C(=O)Nc3c(C)nn(Cc4ccc(F)cc4)c3C)cc2n1 | inconclusive: 1.08% [at 9.22 µM] | – |
| CC(NCC(O)c1ccc([N+](=O)[O-])cc1)C12CC3CC(CC(C3)C1)C2 (configuration not stated) | – | inconclusive: 29.1 µM [falling, single point] |
| Cc1c(OC(=O)c2ccc([N+](=O)[O-])cc2)c2c(c[n+]1C)COC(C)(C)OC2 | – | inconclusive: 6.51 µM [activator, single point] |
| Cc1ccsc1C1Nc2ccccc2-c2nc3ccccc3n21 (configuration not stated) | – | inconclusive: 5.8 µM [activator, full curve, poor fit] |
| COc1ccccc1N1CCN(C(=O)CCNS(=O)(=O)c2cc(Br)cnc2N)CC1 | inconclusive: -13.1% | – |
| CC1CCC(NC(=O)Cn2ncc3ccccc32)CC1 (configuration not stated) | inconclusive: 13.9% | – |
| O=C(O)CCS(=O)(=O)c1cccc2cccnc12 | – | inconclusive: 29.1 µM [falling, single point] |
| COc1ccc(NC(=O)CN2C(=O)NC(C)(c3ccc(C)cc3)C2=O)c([N+](=O)[O-])c1 (configuration not stated) | inconclusive: 35.1% | – |
| C#Cc1cccc(C(=O)NC2CCCN(C3Cc4ccccc4C3)C2)c1 (configuration not stated) | inconclusive: 10.2% | – |
| COc1ccc(NC(=O)CCNC(=O)c2ccco2)c(OC)c1 | inconclusive: -4.08% | – |
| CCC(=O)N1CCc2cc(S(=O)(=O)CCC(=O)N(C)c3ccc(OC)cc3)ccc21 | inconclusive: -119% | – |
| O=C(CCNC(=O)C1CCN(S(=O)(=O)c2ccc(F)cc2)CC1)NCc1ccncc1 | inconclusive: 9.62% | – |
| CC(=O)C1=C(O)C(=O)N(CCN(C)C)C1c1ccc(Cl)cc1 (configuration not stated) | inconclusive: -16.3% | – |
| O=C(NCCc1cnccn1)C1CCC(=O)N(Cc2ccc(Cl)cc2)C1 (configuration not stated) | inconclusive: 14.1% | – |
| CCN(C(=O)COC(=O)Cc1cccc2ccccc12)C1CCS(=O)(=O)C1 (configuration not stated) | – | inconclusive: 0.103 µM [activator, full curve] |
| COC(=O)C1CN(C(=O)c2cccc(OC(F)F)c2)c2ccccc2O1 (configuration not stated) | inconclusive: 56.5% | – |

Compounds from the list above that have an NH in an aromatic ring (five):

| Compound | lipid storage change, negative = inhibition | Potency |
| --- | --- | --- |
| S=c1nc[nH]c2c1[nH]c1ccc(Cl)cc12 | inconclusive: 16.4% | – |
| O=C(NCCc1c[nH]c2ccccc12)C1CCN(S(=O)(=O)c2ccccc2)CC1 | inconclusive: 2.67% | – |
| Cc1nc(SCC(=O)c2ccc(F)cc2)n[nH]1 | inconclusive: 25.9% | – |
| Cc1ccc(NC(=O)CSc2n[nH]c(-c3ccco3)n2)c(C)c1 | inconclusive: -19.3% | – |
| CCCCN(C)S(=O)(=O)c1c(C)[nH]c(=O)[nH]c1=O | – | inconclusive: 0.116 µM [falling, partial curve, poor fit] |

More entries:

| Compound | lipid storage change, negative = inhibition | Potency |
| --- | --- | --- |
| COc1cccc(C2C(C(C)=O)=C(O)C(=O)N2CCc2c[nH]c3ccccc23)c1 (configuration not stated) | inconclusive: -19.7% | – |
| Cn1c(=O)c2c(ncn2CC(=O)NC(C)(C)C)n(C)c1=O | inconclusive: -41% | – |
| O=C(CSc1nc(-c2ccco2)cc(C(F)(F)F)n1)NCC1CCCO1 (configuration not stated) | inconclusive: 43.1% | – |
| O=C(Nc1cc(S(=O)(=O)Nc2ccc(Cl)cc2)ccc1N1CCCCC1)c1ccc(F)cc1Cl | inconclusive: -16.1% | – |
| CC(C)(C)n1nc2c(c1NC(=O)c1cc3ccccc3o1)CSC2 | inconclusive: -6.46% | – |
| COC(=O)c1ccc(OCC(=O)NC2CCCCCC2)cc1 | – | inconclusive: 3.26 µM [falling, full curve, poor fit] |
| COCC(C)n1c(SCC(=O)NC(=O)Cc2ccccc2)nc2ccccc2c1=O (configuration not stated) | inconclusive: -41.9% | – |
| CCCC(C(=O)NC1CCCC1)N(Cc1ccc(OC)cc1)C(=O)c1snc(C(N)=O)c1N (configuration not stated) | inconclusive: -100% | – |
| C=CCNC(=S)NNC(=O)c1ccccc1OCC | inconclusive: 21.6% | – |
| Nc1nonc1-n1nnc(C(=O)N/N=C/c2cc(Br)cs2)c1-c1ccccc1 | inconclusive: -12.6% | – |
| CC(C)c1ccc(NC(=O)CNC(=O)Cn2ccc3ccccc3c2=O)cc1 | – | inconclusive: 20.6 µM [falling, single point] |
| Cc1cc(C)c(NC(=O)CN(C)S(=O)(=O)c2ccc3c(c2)n(C)c(=O)c(=O)n3C)c(C)c1 | inconclusive: 37.3% | – |
| CN(C(=O)c1ccc(Cl)c([N+](=O)[O-])c1)C1(C)CCS(=O)(=O)C1 (configuration not stated) | inconclusive: -8.68% | – |
| O=[N+]([O-])c1ccccc1S(=O)(=O)N1CCN(Cc2cc3c(cc2O)OCO3)CC1 | inconclusive: 6.05% | – |
| CCN(CC(=O)Nc1ccc(C(C)=O)cc1)CC(=O)Nc1ccccc1C(F)(F)F | inconclusive: -0.121% | – |
| Cc1ccccc1OCCn1cc(C=O)c2ccccc21 | – | inconclusive: 6.51 µM [falling, single point] |
| Cc1ccc(C(=O)O)cc1-n1c(C)cc(C=O)c1C | inconclusive: 14.6% | – |
| COc1ccc(C(=O)NC(C)c2ccncc2)cc1S(=O)(=O)N(C)Cc1ccccc1 (configuration not stated) | inconclusive: 14.5% | – |
| CC1(c2ccc3c(c2)OCCO3)NC(=O)N(CC(=O)Nc2c(F)cccc2F)C1=O (configuration not stated) | – | inconclusive: 0.116 µM [cytotoxic, full curve, poor fit] |
| COc1cc(OC)cc(C(=O)N2CCN(Cc3ccc4c(c3)OCO4)CC2)c1 | inconclusive: 12.7% | – |
| COc1ccc(S(=O)(=O)Nc2ccccc2N2CCOCC2)cc1[N+](=O)[O-] | inactive | – |
| COc1ccccc1NC(=O)COC(=O)CCn1c(C)csc1=O | inactive: 22.3% [at 0.0737 µM] | – |
| CCCc1nc(SCC(=O)Nc2nnc(CC)s2)c2c(C)c(C)sc2n1 | inconclusive: -8.29% | – |
| CC(=O)c1cccc(NC(=O)/C(=C\c2cccnc2)NC(=O)c2ccco2)c1 | inconclusive: 15.4% | – |
| COc1ccccc1NC(=O)NNC(=O)c1cc2ccccc2cc1O | inconclusive: 44.2% [at 0.00295 µM] | – |
